# Results published in patent US8771741B2, “In vivo photodynamic therapy of cancer via a near infrared agent encapsulated in calcium phosphate nanoparticles” (The Penn State Research Foundation, priority 2009, dated 2014).
# Test system: bovine aortic endothelial cells (BAECs)
# Assay: Staining of bovine aortic endothelial cells with and without cytochalasin-D
# Assay type: cell-based
# Settings: untreated cells, about 1 μM overnight
substance,measurement,value
Cy3 amidite [Cy3 Dye],staining pattern of cells,specific staining of internal membranous organelles
